Experimental findings from publication doi:10.1101/413799 are described below.

Results are given in words; binding and its absence hold for the method and conditions named. For some assays here: Binding seen in cells or lysates may run through a third protein. Some results given as binding are weak or reduced against the parent protein; the word gives no strength. Sequences can lack the tags named with a protein.

Assay [1] addresses T1, Bbp1 fused to the GAL4-binding domain (BD) (budding yeast), Q12365.
T1 chain: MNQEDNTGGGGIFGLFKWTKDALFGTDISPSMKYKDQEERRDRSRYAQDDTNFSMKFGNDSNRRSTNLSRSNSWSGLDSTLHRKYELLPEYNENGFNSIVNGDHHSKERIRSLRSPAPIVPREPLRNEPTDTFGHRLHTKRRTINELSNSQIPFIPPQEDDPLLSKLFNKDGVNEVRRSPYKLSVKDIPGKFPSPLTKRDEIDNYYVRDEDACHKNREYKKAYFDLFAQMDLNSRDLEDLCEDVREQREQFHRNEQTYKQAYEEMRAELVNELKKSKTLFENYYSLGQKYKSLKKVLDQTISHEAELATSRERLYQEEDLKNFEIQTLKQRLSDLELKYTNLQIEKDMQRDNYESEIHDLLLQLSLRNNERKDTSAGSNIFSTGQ
Kind of assay: two-hybrid. The conditions noted are these: remark: other sources report otherwise.

The target in assay [2] is T2, YFP-Mps3 (budding yeast), P47069.
T2 chain: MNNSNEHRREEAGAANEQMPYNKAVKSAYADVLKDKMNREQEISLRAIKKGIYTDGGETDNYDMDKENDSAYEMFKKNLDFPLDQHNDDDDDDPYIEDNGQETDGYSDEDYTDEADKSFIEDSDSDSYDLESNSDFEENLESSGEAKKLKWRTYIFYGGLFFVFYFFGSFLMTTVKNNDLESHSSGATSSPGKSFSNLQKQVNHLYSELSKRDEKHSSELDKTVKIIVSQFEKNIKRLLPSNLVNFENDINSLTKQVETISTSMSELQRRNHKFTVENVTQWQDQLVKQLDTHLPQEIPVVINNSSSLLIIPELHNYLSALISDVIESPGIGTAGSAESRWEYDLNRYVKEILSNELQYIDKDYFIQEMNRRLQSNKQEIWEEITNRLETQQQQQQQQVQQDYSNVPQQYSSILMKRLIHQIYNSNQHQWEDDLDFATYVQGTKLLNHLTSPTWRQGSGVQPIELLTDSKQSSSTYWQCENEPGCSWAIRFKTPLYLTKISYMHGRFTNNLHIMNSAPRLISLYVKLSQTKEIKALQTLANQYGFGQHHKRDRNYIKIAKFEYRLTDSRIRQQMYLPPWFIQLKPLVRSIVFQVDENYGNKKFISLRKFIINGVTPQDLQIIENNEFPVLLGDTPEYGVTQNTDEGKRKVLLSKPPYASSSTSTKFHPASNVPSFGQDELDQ
Kind of assay: FRET or BRET. The following applies: remark: other sources report otherwise. For orientation: In BRET a luciferase serves as donor, and the signal depends on an acceptor being close.

In assay [3] the target is T3, GFP11-mCherry-Mps2 (budding yeast), P53159.
T3 chain: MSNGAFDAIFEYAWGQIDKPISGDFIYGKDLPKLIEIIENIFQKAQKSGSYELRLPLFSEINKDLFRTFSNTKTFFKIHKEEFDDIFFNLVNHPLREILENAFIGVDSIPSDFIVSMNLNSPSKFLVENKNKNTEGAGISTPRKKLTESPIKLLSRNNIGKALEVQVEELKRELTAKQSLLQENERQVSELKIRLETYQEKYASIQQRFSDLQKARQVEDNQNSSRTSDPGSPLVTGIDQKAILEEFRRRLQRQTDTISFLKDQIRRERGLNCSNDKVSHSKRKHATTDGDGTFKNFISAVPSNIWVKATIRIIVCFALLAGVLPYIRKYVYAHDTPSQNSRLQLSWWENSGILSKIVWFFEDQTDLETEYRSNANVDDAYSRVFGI
Kind of assay: split reporter. The following applies: remark: other sources report otherwise.

Assay [4] has as its target T4, GFP11-mCherry-Mps2 (budding yeast) (UniProt P53159).
T4 sequence: T3 chain
As to the kind of experiment: split reporter.

For the next assay, the target named is T5, YFP-Mps3 (budding yeast) (UniProt P47069).
T5 sequence: T2 chain
As to the kind of experiment: FRET or BRET.

Assay [5] addresses T6, Mps2 tagged with a fluorescent protein (FRET with Nbp1) (budding yeast) (UniProt P53159).
T6 sequence: T3 chain
As to the kind of experiment: FRET or BRET.

B1: Ndc1 fused to the GAL4-activation domain (AD), P32500 1-655 (protein)
chain: MIQTPRELLNPRYTYHTIFSDVCKTRFNHLVTRLFFICSIIQTVVISLLALPHSPLWELALAFIPNILALNLVSLLIIVTRKNYMHVKNFGFANSLTFILGQLLSVKFLVYQGVYSMGSILLSFVLGVVFGRGGSGWKPYYKLFIWLVVPTIYNLQHHVTDADKLSFNCENFFQAPQDYVLERVKRIMEKSVILSVISMFVLPIFTTVFFSRQKSGLFDSFTNGVLAVTNLLIISCIIFITFEFINIAFDAHMSIGCLHKGKLISNLSSTPMETLLSGLSADKPFTRLTAYQELAYRATSLDPSLRAPIYHSKFRSSSGNTWSLILNECLKTIQINNEKVVQYLRSVQDLGGSATARHKKKVENLDYMYENGKLTSANERLFGNRPSMMAPLRDNGLLDESPNRLRVRTDDSVLLNRGNKKRHRSSYYDNDLDETTQTFNGSIFTHETTFMTAMRLMLKKLKNSIMSFIFPSYAERQSSDESDNYRLLPNGSNKAQISIIDIWSISKKRQAEKLVPLPICHANSVVALTGLLIRSKTEDPKGGIIASVGDILKTLERSICALGEFADWDPESMAYTAFQTQRTAQDRVQQDSEDEDSMKDTTDMISVLYQLSTSAFMEIVLEYNVALNDVYLDADVAKLANWFLEVYASGNPNAT
As to B1, the binding result in assay [1] is “binds”.

B2: Ndc1-mT2, P32500 1-655 (protein)
chain: B1 chain
Take B2: the binding entry in assay [2] is reported as “no binding”.

B3: Ndc1-GFP_(1-10), P32500 1-655 (protein)
chain: B1 chain
B3: the binding entry in assay [3] was “binds”.

B4: Bbp1-GFP_(1-10) (protein, UniProt Q12365 1-385)
chain: T1 chain
As to B4, the binding entry in assay [4] is “binds”.

B5: Bbp1-mT2 (protein, UniProt Q12365 1-385)
chain: T1 chain
B5: in the assay with YFP-Mps3 (budding yeast), the binding result is “no binding”.

B6: Nbp1 tagged with a fluorescent protein (FRET with Mps2) (protein, UniProt P52919 1-319)
chain: MLKSVQGLWKDFFGIRDDGRKREYGSLDEVRKRSALRSRRKQMRPTGKSVLKRPRKVTDRKTEEKIRTNRRKTPKRRLTKIFQTIRDVFSNDNENMSKMQNVCGDMTRILKKRSQGRPSYMDTDTAKSRILRSDAFKRKISELKYNKQRISELRSGSSDGSSGKDRNQSLYLDREILLQRQIKKRDEKIKALESKLQSLQEALNYSNEKYRILEDLLDSSNIHPSYTKSRRTMSNLARENDEIKPLKIDLSPSPIRRTNSLFTSSPMKTYNRDGNIPEMQPLQENISPACPTPPYRSRETEKEDETLSPISVDFSSYLS
As to B6, the binding result in assay [5] is recorded as “binds”.

B7: Nbp1-GFP_(1-10) (protein, UniProt P52919 1-319)
chain: B6 chain
Regarding B7, the binding result in assay [4] is “binds”.

B8: GFP_(1-10)-Mps3 (protein, UniProt P47069 1-682)
chain: T2 chain
Turning to B8, the binding entry in assay [4] was “binds”.
